Source: patent publication US20260265220A1, “GALPHA12 INHIBITORS AND METHODS USING SAME” (RUTGERS, THE STATE UNIVERSITY OF NEW JERSEY, priority 2022, published 2026)
Some of these results come from one statement about several compounds together.

Assays:
[1] = test system: AKT phosphorylation (pAKT); experiment: Immunoblot analysis of AKT phosphorylation (pAKT) in airway smooth muscle cells; type: cell-based, human; settings: for pAKT: concentration not stated (FIGS. 4A-4B); for inhibition of AKT phosphorylation (pAKT) by agonists: contractile agonists carbachol or histamine
Experimental: (§1) Compounds 1-3 were evaluated for inhibition of AKT and MLC phosphorylation. As described elsewhere herein, phosphorylation of AKT and/or MLC can occur with activation of the Gα12 pathway. Accordingly, in certain embodiments, detection of a decrease in pAKT and/or pMLC indicates inhibition of Gα12.
(§2) The immunoblot analysis of phosphorylation of myosin light chain (pMLC) was used as a surrogate for ASM contraction. In parallel, phosphorylation of AKT was analogously assessed. AKT is a downstream substrate for phosphoinositide 3-kinase (PI3K) activity, can modulate the activation of the Gα12 pathway in primary human airway smooth muscle cells. These cells are the pivotal cells regulating bronchomotor tone in asthma and chronic obstructive pulmonary disease (COPD) which is emphysema or chronic bronchitis.
(§3) The analogues described herein were further assessed for potency and efficacy in inhibiting AKT and pMLC phosphorylation induced by contractile agonists, carbachol, or histamine. These contractile agonists are pivotal in causing airway smooth muscle contraction and airway obstruction in asthma and COPD.

[2] = test system: MLC phosphorylation (pMLC); experiment: Immunoblot analysis of myosin light chain phosphorylation (pMLC) in airway smooth muscle cells; type: cell-based, human; settings: for carbachol-induced pMLC: compared with a diluent control or the parent compound (1), FIGS. 5A-5D; for pMLC: concentration not stated (FIGS. 4C-4D)
Experimental: as §1, §2, §3

Row | SMILES | pAKT [1] | inhibition of AKT phosphorylation (pAKT) by agonists [1] | carbachol-induced pMLC [2] | pMLC [2] | inhibition of AKT phosphorylation (pAKT) by agonists ([1]; listed as compound 5)
1 | Cc1ccc(Cc2ccc(C3CN(C(=O)c4cnc(C)cn4)CCO3)nc2)cc1 (stereo not shown) [Compound 2, (2-(5-(4-methylbenzyl)pyridin-2-yl)morpholino)(5-methylpyrazin-2-yl)methanone] | decreased | ineffective | effectively decreased | decreased | –
2 | FC(F)(F)c1cccc(Cc2ccc(C3CN(Cc4cccnc4)CCO3)nc2)c1 (stereo not shown) [Compound 5, 4-(pyridin-3-ylmethyl)-2-(5-(3-(trifluoromethyl)benzyl)pyridin-2-yl)morpholine] | – | – | – | – | ineffective
3 | CNc1ncccc1CN1CCOC(c2ccc(Cc3cccc(C(F)(F)F)c3)cn2)C1 (stereo not shown) [Compound 4, N-methyl-3-((2-(5-(3-(trifluoromethyl)benzyl)pyridin-2-yl)morpholino)methyl)pyridin-2-amine] | – | ineffective | effectively decreased | – | –
4 | CCN1CCC(CC(=O)N2CCOC(c3ccc(-c4cccc(OC)c4)cn3)C2)CC1 (stereo not shown) [Compound 3, 2-(1-ethylpiperidin-4-yl)-1-(2-(5-(3-methoxyphenyl)pyridin-2-yl)morpholino)ethan-1-one] | decreased | ineffective | effectively decreased | decreased | –
5 | O=C(CCn1ncc2ccccc21)N1CCOC(c2ccc(Cc3ccc(F)cc3)cn2)C1 (stereo not shown) [compound 1, 1-(2-(5-(4-fluorobenzyl)pyridin-2-yl)morpholino)-3-(1H-indazol-1-yl)propan-1-one] | decreased | – | – | decreased | –
